Compound in this assay: Nc1nc2c(ncn2[C@@H]2O[C@H](COP(=O)(O)OP(=O)(O)OP(=O)(O)O)[C@@H](O)[C@H]2O)c(=O)[nH]1 [guanosine triphosphate]
Put plainly: NP40-soluble protein abundance relative to vehicle (solubility fold change) (ratio); higher = more soluble protein in presence of GTP. Here is the method:
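Solubility proteome profiling in Jurkat crude lysate. Lysate was treated with Mg-GTP (0.1-10 mM) for 10 min at room temperature and 3 min at 37 °C, then solubilised with 0.8% NP40 and benzonase, followed by ultracentrifugation. Proteins were quantified by TMT10 LC-MS/MS; the value is the NP40-soluble abundance relative to the NP40-processed vehicle, from 3 independent experiments.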

By UniProt entry, the sequences of proteins in these tests, tags left out. Where a name states a change or a piece, a line headed by the entry shows the natural chain unless it says otherwise.
UniProt Q8WZ82: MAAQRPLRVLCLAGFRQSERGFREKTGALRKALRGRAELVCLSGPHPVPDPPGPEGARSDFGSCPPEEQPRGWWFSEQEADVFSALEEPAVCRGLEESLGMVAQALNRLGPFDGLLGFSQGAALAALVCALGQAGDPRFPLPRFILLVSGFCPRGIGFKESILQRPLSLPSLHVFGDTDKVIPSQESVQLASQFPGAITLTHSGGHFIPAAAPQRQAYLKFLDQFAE
UniProt Q92673: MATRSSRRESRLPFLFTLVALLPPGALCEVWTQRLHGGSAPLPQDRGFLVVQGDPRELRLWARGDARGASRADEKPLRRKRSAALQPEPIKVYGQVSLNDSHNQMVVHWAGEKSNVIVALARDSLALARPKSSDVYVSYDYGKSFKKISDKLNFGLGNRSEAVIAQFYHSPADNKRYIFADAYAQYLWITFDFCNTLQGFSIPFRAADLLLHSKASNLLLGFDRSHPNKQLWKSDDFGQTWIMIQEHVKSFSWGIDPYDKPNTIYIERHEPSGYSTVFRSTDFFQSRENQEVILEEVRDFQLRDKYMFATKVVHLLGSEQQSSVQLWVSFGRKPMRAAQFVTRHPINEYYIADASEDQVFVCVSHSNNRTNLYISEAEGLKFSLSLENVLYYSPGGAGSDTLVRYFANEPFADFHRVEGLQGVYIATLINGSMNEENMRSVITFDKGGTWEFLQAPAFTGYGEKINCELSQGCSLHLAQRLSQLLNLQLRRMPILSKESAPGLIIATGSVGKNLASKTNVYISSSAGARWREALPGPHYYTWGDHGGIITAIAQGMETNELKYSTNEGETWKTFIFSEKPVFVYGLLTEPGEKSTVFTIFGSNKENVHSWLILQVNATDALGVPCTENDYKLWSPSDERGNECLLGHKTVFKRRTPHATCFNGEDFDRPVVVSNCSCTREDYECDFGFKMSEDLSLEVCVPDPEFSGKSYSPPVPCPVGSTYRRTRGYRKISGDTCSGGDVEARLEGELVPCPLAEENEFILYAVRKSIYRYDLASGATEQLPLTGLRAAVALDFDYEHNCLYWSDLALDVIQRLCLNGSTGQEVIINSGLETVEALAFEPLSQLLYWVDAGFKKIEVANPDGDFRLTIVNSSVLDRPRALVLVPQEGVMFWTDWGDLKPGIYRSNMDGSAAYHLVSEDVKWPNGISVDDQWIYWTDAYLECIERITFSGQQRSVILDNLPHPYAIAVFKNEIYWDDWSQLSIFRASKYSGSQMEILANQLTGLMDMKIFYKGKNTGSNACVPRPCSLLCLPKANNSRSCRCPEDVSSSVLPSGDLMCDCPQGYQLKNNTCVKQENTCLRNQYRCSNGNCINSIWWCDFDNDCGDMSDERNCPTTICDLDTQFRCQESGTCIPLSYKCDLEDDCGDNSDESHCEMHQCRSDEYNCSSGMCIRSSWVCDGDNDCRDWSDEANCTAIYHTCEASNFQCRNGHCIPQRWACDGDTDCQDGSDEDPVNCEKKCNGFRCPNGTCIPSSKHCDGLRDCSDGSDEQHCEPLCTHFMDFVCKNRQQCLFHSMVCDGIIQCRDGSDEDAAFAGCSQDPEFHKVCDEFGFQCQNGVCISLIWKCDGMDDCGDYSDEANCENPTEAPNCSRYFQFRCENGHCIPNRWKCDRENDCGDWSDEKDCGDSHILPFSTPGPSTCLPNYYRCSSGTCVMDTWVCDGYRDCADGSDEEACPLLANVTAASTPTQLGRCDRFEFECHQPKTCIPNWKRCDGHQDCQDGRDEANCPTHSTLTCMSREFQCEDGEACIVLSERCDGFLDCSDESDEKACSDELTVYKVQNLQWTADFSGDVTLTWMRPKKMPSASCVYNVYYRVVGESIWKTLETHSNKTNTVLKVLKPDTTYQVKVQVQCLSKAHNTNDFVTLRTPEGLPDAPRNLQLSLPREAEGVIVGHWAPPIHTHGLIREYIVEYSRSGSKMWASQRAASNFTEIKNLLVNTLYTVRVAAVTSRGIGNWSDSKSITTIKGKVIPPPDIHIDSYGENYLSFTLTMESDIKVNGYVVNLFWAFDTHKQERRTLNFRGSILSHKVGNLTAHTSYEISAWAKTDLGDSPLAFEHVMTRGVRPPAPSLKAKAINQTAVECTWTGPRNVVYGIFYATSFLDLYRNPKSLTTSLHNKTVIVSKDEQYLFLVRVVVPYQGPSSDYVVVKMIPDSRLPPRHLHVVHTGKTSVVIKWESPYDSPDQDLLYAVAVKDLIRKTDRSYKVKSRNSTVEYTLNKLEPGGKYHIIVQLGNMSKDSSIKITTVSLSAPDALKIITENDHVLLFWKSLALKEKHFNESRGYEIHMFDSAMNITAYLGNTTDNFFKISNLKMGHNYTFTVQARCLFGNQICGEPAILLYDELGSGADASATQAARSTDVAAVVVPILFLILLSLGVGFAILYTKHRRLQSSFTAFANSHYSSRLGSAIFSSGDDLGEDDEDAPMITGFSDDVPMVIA
UniProt Q92610: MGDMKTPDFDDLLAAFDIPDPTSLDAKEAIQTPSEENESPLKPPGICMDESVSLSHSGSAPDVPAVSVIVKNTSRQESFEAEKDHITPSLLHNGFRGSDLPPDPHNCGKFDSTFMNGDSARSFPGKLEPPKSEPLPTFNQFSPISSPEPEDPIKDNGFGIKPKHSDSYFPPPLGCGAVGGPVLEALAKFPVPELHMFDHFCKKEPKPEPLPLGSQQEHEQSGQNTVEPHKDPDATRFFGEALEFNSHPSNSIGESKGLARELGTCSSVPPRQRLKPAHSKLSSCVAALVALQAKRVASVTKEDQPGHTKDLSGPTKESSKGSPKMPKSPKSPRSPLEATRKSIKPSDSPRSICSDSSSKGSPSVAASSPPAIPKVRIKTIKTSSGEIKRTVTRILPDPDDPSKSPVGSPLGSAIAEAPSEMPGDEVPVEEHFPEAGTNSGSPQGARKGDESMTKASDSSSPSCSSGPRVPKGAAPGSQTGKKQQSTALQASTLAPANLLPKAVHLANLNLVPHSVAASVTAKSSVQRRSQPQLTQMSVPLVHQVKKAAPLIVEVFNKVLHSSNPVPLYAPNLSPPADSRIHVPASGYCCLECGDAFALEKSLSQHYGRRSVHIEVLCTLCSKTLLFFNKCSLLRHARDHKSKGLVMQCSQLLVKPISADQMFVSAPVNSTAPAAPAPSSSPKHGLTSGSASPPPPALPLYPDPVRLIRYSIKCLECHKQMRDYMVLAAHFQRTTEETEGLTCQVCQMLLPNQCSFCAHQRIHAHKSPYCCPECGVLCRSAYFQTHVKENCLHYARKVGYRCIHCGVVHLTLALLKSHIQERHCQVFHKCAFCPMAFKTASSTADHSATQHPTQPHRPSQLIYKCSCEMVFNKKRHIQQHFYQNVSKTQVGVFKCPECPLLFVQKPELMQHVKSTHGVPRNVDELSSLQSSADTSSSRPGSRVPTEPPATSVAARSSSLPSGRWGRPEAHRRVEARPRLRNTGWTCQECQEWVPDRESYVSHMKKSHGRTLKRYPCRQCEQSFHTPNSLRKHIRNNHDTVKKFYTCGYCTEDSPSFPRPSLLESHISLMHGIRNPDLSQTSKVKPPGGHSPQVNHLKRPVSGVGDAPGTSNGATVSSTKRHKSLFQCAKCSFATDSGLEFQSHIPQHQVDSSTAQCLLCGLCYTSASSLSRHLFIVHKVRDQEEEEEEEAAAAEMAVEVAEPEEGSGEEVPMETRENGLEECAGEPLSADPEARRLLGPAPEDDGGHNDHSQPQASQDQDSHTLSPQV
UniProt Q969G3, whole entry: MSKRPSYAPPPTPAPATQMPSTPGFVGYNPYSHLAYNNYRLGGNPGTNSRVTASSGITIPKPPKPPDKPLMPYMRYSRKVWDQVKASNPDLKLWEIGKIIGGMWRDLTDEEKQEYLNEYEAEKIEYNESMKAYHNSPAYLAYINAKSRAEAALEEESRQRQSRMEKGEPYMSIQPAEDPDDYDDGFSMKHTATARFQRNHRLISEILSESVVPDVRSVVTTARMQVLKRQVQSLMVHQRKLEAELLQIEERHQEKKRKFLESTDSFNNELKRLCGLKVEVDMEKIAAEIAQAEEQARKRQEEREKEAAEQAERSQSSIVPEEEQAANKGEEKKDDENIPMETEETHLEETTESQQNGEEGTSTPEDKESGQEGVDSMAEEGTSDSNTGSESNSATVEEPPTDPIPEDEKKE
UniProt Q96BR5: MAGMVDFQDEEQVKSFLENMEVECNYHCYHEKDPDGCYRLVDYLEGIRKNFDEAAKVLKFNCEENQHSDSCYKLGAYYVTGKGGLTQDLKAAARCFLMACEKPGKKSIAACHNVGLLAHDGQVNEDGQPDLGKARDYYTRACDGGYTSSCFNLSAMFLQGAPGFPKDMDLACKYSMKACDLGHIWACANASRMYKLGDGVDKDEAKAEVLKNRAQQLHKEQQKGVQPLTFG

± gives the standard deviation of the averaged measurements. The list shows a part of the results.

Turning to OVCA2 (UniProt Q8WZ82), the NP40-soluble protein abundance came out at 1.08 ± 0.11 (concentration: 0.1mM); 1.04 ± 0.15 (concentration: 0.5mM); 1.02 ± 0.17 (concentration: 1mM); 0.993 ± 0.084 (concentration: 2mM); 0.985 ± 0.14 (concentration: 4mM); 1.01 ± 0.16 (concentration: 6mM). For the same target, the NP40-soluble protein abundance is 0.938 ± 0.16 (concentration: 8mM) and 0.868 ± 0.11 (concentration: 10mM).

As for SORL1 (UniProt Q92673), the NP40-soluble protein abundance is, setting by setting: (concentration: 0.1mM) 0.966 ± 0.027; (concentration: 0.5mM) 0.961 ± 0.059; (concentration: 1mM) 0.974 ± 0.031; (concentration: 2mM) 0.99 ± 0.081; (concentration: 4mM) 1.01 ± 0.036; (concentration: 6mM) 0.948 ± 0.053. For the same target, the NP40-soluble protein abundance runs as follows: (concentration: 8mM) 0.966 ± 0.025; (concentration: 10mM) 0.992 ± 0.078.

Turning to UniProt Q92610 and related entries, the NP40-soluble protein abundance (concentration: 0.1mM) came to 0.985 ± 0.046; the NP40-soluble protein abundance (concentration: 0.5mM) turned out to be 1.133 ± 0.011; the NP40-soluble protein abundance (concentration: 1mM) was 1.192 ± 0.01; the NP40-soluble protein abundance (concentration: 2mM) worked out at 1.34 ± 0.041; the NP40-soluble protein abundance (concentration: 4mM) is 1.23 ± 0.015; the NP40-soluble protein abundance (concentration: 6mM) amounted to 1.33 ± 0.015. Moreover, the NP40-soluble protein abundance (concentration: 8mM) amounted to 1.34 ± 0.21 and the NP40-soluble protein abundance (concentration: 10mM) came out at 1.29 ± 0.11.

Consider UniProt Q969G3 and related entries, for which the NP40-soluble protein abundance by setting is: (concentration: 0.1mM) 0.861 ± 0.11; (concentration: 0.5mM) 0.864 ± 0.082; (concentration: 1mM) 1.23 ± 0.26; (concentration: 2mM) 1.22 ± 0.17; (concentration: 4mM) 1.18 ± 0.21; (concentration: 6mM) 1.22 ± 0.2. For the same target, the NP40-soluble protein abundance reads like this: (concentration: 8mM) 1.19 ± 0.27; (concentration: 10mM) 1.36 ± 0.41.

Turning to UniProt Q96BR5, the NP40-soluble protein abundance was found to be 0.969 ± 0.051 (concentration: 0.1mM); 0.95 ± 0.056 (concentration: 0.5mM); 0.955 ± 0.055 (concentration: 1mM); 0.928 ± 0.065 (concentration: 2mM); 0.933 ± 0.072 (concentration: 4mM); 0.929 ± 0.071 (concentration: 6mM). Also, the NP40-soluble protein abundance reads like this: (concentration: 8mM) 0.948 ± 0.05; (concentration: 10mM) 0.934 ± 0.065.

Source of the values: the supplement of paper PMC6411743.
